Test results taken from publication PMC4657098, “A Review of the Updated Pharmacophore for the Alpha 5 GABA(A) Benzodiazepine Receptor Model” (International Journal of Medicinal Chemistry, 2015).

Target: α6β3γ2 GABAA/BzR (Homo sapiens, UniProt P18507+Q16445)
Experiment: Competition binding to HEK cell membranes, α6β3γ2
Settings: read-out: Ki α6

CN1C(=O)CN=C(c2ccccc2[N+](=O)[O-])c2cc([N+](=O)[O-])ccc21
Ki: 10 µM and 1 µM

A number of entries come with more than one value. Only these are listed. There may be further records. Values that stand side by side do not match, cause unknown; dose, time, organism, isomer or construct need not be as stated for each record.
